These results are taken from publication PMC3795697.

For the data set, the target named is T1, BCARR (26 kDa CBS domain protein, CBSDP) (Lactobacillus helveticus CM4) (UniProt U6BZW9).
T1 sequence (looked up, limits assumed): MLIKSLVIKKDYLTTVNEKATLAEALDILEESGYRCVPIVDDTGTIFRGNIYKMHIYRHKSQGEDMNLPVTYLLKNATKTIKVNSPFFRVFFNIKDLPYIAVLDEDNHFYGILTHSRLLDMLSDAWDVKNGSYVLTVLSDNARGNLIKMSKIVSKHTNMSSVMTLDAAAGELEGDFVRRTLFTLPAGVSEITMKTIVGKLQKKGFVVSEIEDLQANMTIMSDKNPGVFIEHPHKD
Briefly: EMSA. The conditions noted are these: EMSA: 20 mM Tris-HCl pH 8.5, 10 mM MgCl2, 100 mM KCl, 1 mM DTT, 0.01% BSA, 10 mM BCAAs or single amino acids, 30 C 10 min, footprinting same buffer, DNase I 37 C 1.5 min, recombinant protein, probe letters rebuilt from the primers and the genome.

[1] abbreviates: 10 mM BCAAs, 2.3 uM BCARR, slight shift, label: 32P 5' end.

The exact form of at least one protein or probe is not confirmed. Weaker means in comparison with the reference protein, sequence or condition of that experiment. Protein sequences can lack the tags named with them.

Regarding “ATGTACAGTTGATCTTGAAATATCACCGGAAGTAAAAAGAAATGAGGTAAAGAGCAACCATGCATCGAAAAAATTCTTCTTATATAGTTTGATAGGACTC (double strand) [pepV -216/-116]”, under setting [1], the binding result is listed as “binds more weakly”. “CCGTCAGCATCAACAGTTGCTAAGTAAACTAAGTTATTCTTGAAAAGATTTACTTGTTCTTCAGTAAGCTTGTTAGTATTTAATTTCTTCATAGATAATACATCCCTTCTGTTTTATCAATACACTATAAGTATACATCAATTTAATAGCAGGTGTTAGAGATGTGCTTACATCCTTATTTTTATTTAACAAAATGCTTTTATTACTATAAATAAGCAAAATTAAATAAGCAAAATTAAATTTTCATTTTATTTTAAAAAATGCTATGATTTAACCAACTAAAAAACAAAGGAGAAAACATATGAATTTAGCAAAAATCCGCG (double strand) [pepO2 upstream]”: the binding result (10 mM BCAAs) is “binds”. In the case of “CTAGTAATAGATCACTCTGCTTTTCCAAAGGTCATTCCTCCATTTATAGCTTTTTTATTAAAAGCTGTTTAATCTTTTTTATTTATTTTCTAATTATAAACACAAAGCTGGTCGTATGCAAATAACTACACGAATTTTTTTCAGAAAATTAACCTTGATGTGACTTAATATATGATACAGCGTCACCAACAGTCTTAATTTTCTCAGCTTCGTCATCAGGAATTTCTGAGCCAAATTCATCTTCAAGTT (double strand) [dppD upstream]”, for the setting “10 mM BCAAs”, the binding result is reported as “binds”.

On to “GCTACAAACATTGTGTCAGCTAAGTTATAAATCATCGTGGTAATCATCCCCAGCACCACAGGAAAAGCTAATTTAAAATAGACTTTTTTATAGGTGCTTTTGCAAATAATTCATCCATAAATTTTTCCTACTCTCATTCAAATAATTCTTACCAATTTATTATATTCTTTTTTGAATCTGCTTATGGCTGAGATTTTTGAAAAATACTTTAATTAAGAAAAGCAATCTATTATACTGAATACAATATGAAATTTAAATGAAAAGGTGGCGCAAGATATGAGTTTTTACGATTTAAGTTACGAGCAAG (double strand) [pepT2 upstream]”, for which the binding result (10 mM BCAAs) is “binds”. Consider “TCATCTTTTTTAGCAGCAGCTAATTTCTTGTAGTCTAAATTCATATATTTCTCTCCCTTAATTAAATTGATTAATAATATTTTATCAGAAATGTTTGATTCTTACTAAAAATAAGATAC (double strand) [pepV -76/+43]”, for which the binding result under setting [1] is given as “binds more weakly”. The same measure, in the same setting: the same measure for “TCCATCCTATCGCTTAAAGGTATAATGAATAAAAATAGCAAAAAAGAGCAGAGTCCTATCAAACTATATAAGAAGAATTTTTTCGATGCATGGTTGCTCT (double strand) [pepV -266/-166]”: “binds more weakly”.

For the sequence “TCCATCCTATCGCTTAAAGGTATAATGAATAAAAATAGCAAAAAAGAGCAGAGTCCTATCAAACTATATAAGAAGAATTTTTTCGATGCATGGTTGCTCTTTACCTCATTTCTTTTTACTTCCGGTGATATTTCAAGATCAACTGTACATTCATGATAGTCTATCTTTGTTTTGAAAAACAAATTTATTTGTATCTTATTTTTAGTAAGAATCAAACATTTCTGATAAAATATTATTAATCAATTTAATTAAGGGAGAGAAATATATGAATTTAGACTACAAGAAATTAGCTGCTGCTAAAAAAGATGA (double strand) [pepV upstream 309 bp]”, the binding result is “binds” (10 mM BCAAs (Val, Leu, Ile), shift at 1.5 uM BCARR); “binds” (10 mM Ile (most effective)); “binds” (10 mM Leu); “binds” (10 mM Val); “binds more weakly” (no BCAAs, shift at 3 uM but not 1.5 uM BCARR). “TTCTTGTCGGCATGGTATCCAGGCACGACAGGAACAACCACATCGCTAAATGATTTCTTGATCTGATTGCCAAGGAGTGGTGTACTTGCCATCTTCGATGATCTTGCCGGTGATTAGACTAGCGGTAACGGTACTCTTAAAGTCAATGGTTTGAACATTGTCCTTAGGTGTTAATTCACCTGCACCATCATATTTAACGACAAAATTGATTTGACGAGAATATGCACTTGGATCAACCAATTCATTAGGATGATCCGCATCAACGCGAATAATTGGCATTTTCATTGTAATGATGAAAACTGGAACAGTGG (double strand) [pepCE upstream]”: under “10 mM BCAAs”, the binding result is recorded as “binds”. As for “TTTCAAGATCAACTGTACATTCATGATAGTCTATCTTTGTTTTGAAAAACAAATTTATTTGTATCTTATTTTTAGTAAGAATCAAACATTTCTGATAAAATATTATTAATCAATTTAATTAAGGGAGAGAAATATATGAA (double strand) [pepV -136/+4]”, the binding result (10 mM BCAAs, 2.3 uM BCARR (text: 3 uM), highly shifted, label: 32P 5' end) is recorded as “binds”.
